Data reported in PMC6557900.
These are yes or no findings as the source states them, for the method shown. Some binding calls cover weakened binding; strength is not graded here.

Columns and labels:
[1] = target: T1, GHR_pY595 phosphopeptide (growth hormone receptor), wild-type; assay: crystal structure; SBC-GHR2: GHR_pY595 and GHR_pY487 mixed with S^KKQBC at 1:1:1; 0.005 M cobalt chloride, 0.1 M MES pH 6.5, 1.0 M ammonium sulfate, 4 °C; 2.8 Å; both purified; conditions: remark: other sources report otherwise
T1 chain: PVPDYTSIHIV

[2] = target: T1, GHR_pY595 phosphopeptide (growth …); assay: crystal structure; SBC-GHR: S^KKQBC incubated with five times molar excess of GHR_pY595; 0.005 M cobalt(II) chloride, 0.1 M MES pH 6.5, 1.0 M ammonium sulfate, 4 °C; 1.98 Å; both purified; conditions: remark: other sources report otherwise

B1: GHR_pY595 phosphopeptide (growth hormone receptor), wild-type (peptide)
peptide: PVPDYTSIHIV
modifications: here or on the partner: phosphotyrosine (pY) at the 5th residue (Tyr595); C-terminal amide; phosphotyrosine (pY) at the 5th residue (Tyr595); C-terminal amide
binding [1]: binds | binding [2]: binds
